Percent effect of library compounds

T. brucei: 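Whole-parasite assay of Trypanosoma brucei over 72 hours; the read-out is not stated. Tested at 30 µM. The record gives no direction; compounds that gave an IC50 in retests scored well above the rest, so higher reads as stronger inhibition. Values scatter widely below zero; nearly all retest evidence comes from the higher of the two concentrations used. About 64,000 compounds were tested under these conditions; 1.5% (about 940) showed 50% or more at least once.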
Toxoplasma: 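Assay of Toxoplasma gondii numbers, read through their beta-galactosidase reporter with a colour substrate. Concentration: 10 µM. The record gives no direction; the compounds picked for IC50 retests had high values, so higher reads as fewer parasites. Size under these conditions: about 67,000 compounds, about 260 of them at 50% or above in at least one test.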

Values are the deposited “Percent Effect”, in %.
How 0% and 100% were set is not recorded. Most values in the screen are low, and negative values occur.
Compounds were drawn at random from those tested, without regard to their results.
A dash means the value is not listed here; it may have been measured.

- CN1C(=O)CCC12CCCN(Cc1nccs1)C2.O=C(O)C(F)(F)F (configuration not stated) : T. brucei: -24.53%; Toxoplasma: 0.7083%
- O=C(C1CCOC1)N1CCC2(CC1)COCCN(Cc1ccncc1)C2.O=C(O)C(F)(F)F.O=C(O)C(F)(F)F (configuration not stated) : T. brucei: -22.95%; Toxoplasma: 19.23%
- COc1cccc(/C=C/CCN2CCCN(C(C)=O)CC2)c1 : T. brucei: -2.014%; Toxoplasma: 5.305%
- C=C(C)Cn1c(=O)nc(N)c2c(-c3ccc(OC)cc3)csc21 : T. brucei: -21.08%; Toxoplasma: -11.09%
- CCc1nc(N)sc1C(=O)N1CCCC(CCc2ccccc2C)C1 (configuration not stated) : T. brucei: 36.61%; Toxoplasma: 4.732%
- Cc1ccc(CN2CCOCC2)cc1NCc1ccsc1 : T. brucei: -19.37%; Toxoplasma: 2.003%
- Cc1ccc(-c2nc(C(=O)N(C)C3CCN(C)CC3)cs2)c(C)c1 : Toxoplasma: 29.54%
- CN(Cc1cccs1)C(=O)CN1CCCC1Cn1cncn1 (configuration not stated) : T. brucei: -37.18%; Toxoplasma: -0.3046%
- CC(C)CN(C(=O)COc1ccc(C(N)=O)cc1)C1CCN(C)CC1 : T. brucei: 0.2194%; Toxoplasma: 12.46%
- CC(C)CNC(=O)c1cn(C(C)C)cc2c(=O)[nH]nc1-2 : T. brucei: -54.04%; Toxoplasma: 18.83%
- Cc1csc(NC(=O)C(C)Oc2ccc3c(c2)OCO3)n1 (configuration not stated) : Toxoplasma: 8.475%
- Cc1cccc(OCCN2CCCC(c3cc(C(N)=O)[nH]n3)C2)c1 (configuration not stated) : T. brucei: 6.251%; Toxoplasma: -1.114%
- Cc1nc(-c2ccoc2)n(CC(=O)NCC(C)C)c1C : T. brucei: 3.89%; Toxoplasma: -20.3%
- CCS(=O)(=O)Nc1ccn(Cc2cccc(F)c2)n1 : T. brucei: -34.49%; Toxoplasma: -8.97%
- Cc1c[nH]nc1C1CCN(C(=O)C2CCOCC2)C1 (configuration not stated) : Toxoplasma: 9.496%
- OC1(CN2CCN(c3cccc(C(F)(F)F)c3)CC2)CNCCOC1 (configuration not stated) : T. brucei: 12.96%; Toxoplasma: -4.1%
- NC(=O)CCSc1n[nH]c(-c2ccc3c(c2)CCC3)n1 : T. brucei: 5.25%; Toxoplasma: 2.487%
- CC(=O)NCCNC(=O)c1ccc(C)c(-n2cccc2)c1 : T. brucei: -10.83%; Toxoplasma: 3.086%
- CC(C)C(=O)NC1CCCN(C(=O)c2cc3ccccc3cc2O)C1 (configuration not stated) : T. brucei: 22.98%; Toxoplasma: -18.49%
- CN(C)Cc1cncc2c1CCN(CC(=O)N(C)C)C2 : T. brucei: -33.76%; Toxoplasma: 5.143%
- CCN(CC)C(CNS(=O)(=O)c1ccc(C(=O)NC)cc1)c1ccco1 (configuration not stated) : T. brucei: 47.21%; Toxoplasma: -6.561%
- CN(C)C(=O)CN1CCC2(C1)CN(CC1CCOCC1)C2 : T. brucei: -38.98%; Toxoplasma: 26.71%
- O=C(NCCC(=O)N1CCCC1)c1cccnc1 : T. brucei: -12.69%; Toxoplasma: 2.676%

For reference, 3 entries once more:

| compound | T. brucei | Toxoplasma |
|---|---|---|
| `Cc1c[nH]nc1C1CCN(C(=O)C2CCOCC2)C1` (configuration not stated) | - | 9.496 |
| `CC(C)CNC(=O)c1cn(C(C)C)cc2c(=O)[nH]nc1-2` | -54.04 | 18.83 |
| `CN1C(=O)CCC12CCCN(Cc1nccs1)C2.O=C(O)C(F)(F)F` (configuration not stated) | -24.53 | 0.7083 |

From ChEMBL document CHEMBL3988442, “University of Dundee, Small-Polar-MMV Screening Library” (2021).